Laboratory results as given in PMC10044640 (Antibiotics, 2023).

Experiment: general procedure: Fmoc solid-phase peptide synthesis; H-His(Trt)-2-ClTrt resin, loading 0.71 mmol g-1, or Fmoc-Arg(Pbf)-Wang resin, loading 0.59 mmol g-1
Settings: whole synthesis, HCl salt; for purity (crude or final not stated) / final HPLC purity: 214 nm; for purity (crude or final not stated) / final HPLC purity / isolated yield: scale of the general procedure 100 mg resin per peptide

Row | Substance | purity (crude or final not stated) | final HPLC purity | isolated mass | isolated yield
1 | H-Glu-Ser-Arg-Ile-His-OH | >95% |  |  | 
2 | H-Glu-Ser-Arg-Leu-His-OH | >95% |  |  | 
3 | H-Glu-Ser-His-Ile-His-OH | >95% |  |  | 
4 | H-Glu-Thr-His-Ile-His-OH | >95% |  |  | 
5 | H-Glu-Tyr-Arg-Ile-Arg-OH | 90% |  |  | 
6 | H-Thr-Ser-His-Leu-Arg-OH | 93% |  |  | 
7 | H-Thr-Ser-His-Leu-His-OH |  | >95% | 14.1 mg | 28%
8 | H-Thr-Thr-His-Ile-Arg-OH | 82% |  |  | 
9 | H-Thr-Tyr-Arg-Leu-Arg-OH | 82% |  |  | 
10 | H-Thr-Tyr-His-Leu-His-OH |  | >95% | 26.8 mg | 49%
